PubChem BioAssay AID720505 – Drosophila RNAi Screening Center, 2013

Assay: 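Fly regulators or components of the CRAC channel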 (primary screen)
System: Drosophila S2R+ cells
Reagents: long dsRNA against Drosophila genes
Challenge: thapsigargin (2 µM) in calcium-free buffer to empty internal stores, then 2 mM calcium added back
Measured: 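Stores emptied by 2 µM thapsigargin without calcium, then 2 mM calcium re-added; fluo-4 fluorescence followed by FLIPR in 384-well plates, per-well averaged endpoint, raw; two screen passes, some wells retested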
Direction: calcium signal and retest calcium signal: higher = more calcium entry after store depletion
Hit rule: 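About 1500 genes called as lowering calcium entry, by varying amounts, judged against per-plate control wells with STIM1 as positive and Rho1 as negative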
Meaning of the calls: active = called as lowering calcium entry; inactive = not called
The screen tested about 20,000 reagents; below is a random part of those with a known target gene and a result. Over the whole deposit, about 2,100 (10%) are marked active. 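Raw plate signals without normalisation; calls rest on control-based scores that were not deposited; replicate 2 separates called from uncalled poorly.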 Unmarked entries are inactive. The numbers tell different reagents against one gene apart. A plus sign joins genes that one reagent is predicted to hit. Not stated in the record: the amount of reagent, the time to read-out.

| gene knocked down | dsRNA no. | calcium signal, replicate 1 | calcium signal, replicate 2 | retest calcium signal, replicate 1 | retest calcium signal, replicate 2 |
| --- | --- | --- | --- | --- | --- |
| ND-24 (NADH dehydrogenase (ubiquinone) 24 kDa subunit) | 1 | 156 | 117 | – | – |
| CG17777 | 1 | 131 | 120 | – | – |
| Eig71Ek | 1 | 85.3 | 171 | – | – |
| fd19B (forkhead domain 19B) | 1 | 77 (active) | 183 | 105 | 102 |
| Prp31 (Pre-mRNA processing factor 31) | 1 | 90.3 | 81.4 | – | – |
| CG33964 + CG13175 | 1 | 124 | 105 | – | – |
| CG33964 + CG13175 | 2 | 81.3 | 139 | – | – |
| CG33964 + CG13175 | 3 | 123 | 181 | – | – |
| dikar | 1 | 78.7 | 89.3 | – | – |
| dikar | 2 | 127 | 156 | – | – |
| CG14960 | 1 | 75.6 | 128 | – | – |
| CG30156 | 1 | 73.9 (active) | 91.5 | – | – |
| CG12084 | 1 | 156 | 123 | – | – |
| CG12003 | 1 | 127 | 117 | – | – |
| MESK2 + CG10494 | 1 | 127 | 108 | – | – |
| ecd (ecdysoneless) | 1 | 86.5 | 94.5 | – | – |
| Mvl (Malvolio) | 1 | 144 | 211 | – | – |
| Lmpt (Limpet) | 1 | 11344 | 153 | – | – |
| Lmpt (Limpet) | 2 | 79.4 | 229 | – | – |
| Lmpt (Limpet) | 3 | 106 | 106 | – | – |
| Lmpt (Limpet) | 4 | 64.7 (active) | 223 | – | – |
| Lmpt (Limpet) | 5 | 97.7 | 139 | – | – |
| Lmpt (Limpet) | 6 | 152 | 122 | – | – |
| Lmpt (Limpet) | 7 | 109 | 161 | – | – |
| CG3308 | 1 | 185 | 204 | – | – |
| BckdhA (Branched chain keto acid dehydrogenase E1 subunit alpha) | 1 | 214 | 145 | – | – |
| CG15136 | 1 | 113 | 150 | – | – |
| CG33140 | 1 | 141 | 109 | – | – |
| Cdc50 (Cell division cycle 50) | 1 | 94.4 | 115 | – | – |
| Vps37B (Vacuolar protein sorting 37B) | 1 | 68.5 (active) | 119 | – | – |
| EloA (Elongin A) | 1 | 173 | 347 | – | – |
| CG34337 | 1 | 231 | 99.7 | – | – |
| CG4328 | 1 | 92.5 | 90.3 | – | – |
| CG4328 | 2 | 149 | 165 | – | – |
| unc79 (uncoordinated 79) | 1 | 152 | 193 | – | – |

Next part; the last 3 above are carried over.
| gene knocked down | dsRNA no. | calcium signal, replicate 1 | calcium signal, replicate 2 | retest calcium signal, replicate 1 | retest calcium signal, replicate 2 |
| --- | --- | --- | --- | --- | --- |
| CG4328 | 1 | 92.5 | 90.3 | – | – |
| CG4328 | 2 | 149 | 165 | – | – |
| unc79 (uncoordinated 79) | 1 | 152 | 193 | – | – |
| btl (breathless) | 1 | 67.4 | 82.4 | – | – |
| CG32432 | 1 | 95.2 | 128 | – | – |
| CG32432 | 2 | 104 | 142 | – | – |
| CG32432 | 3 | 124 | 140 | – | – |
| CG11583 | 1 | 111 | 119 | – | – |
| morgue (modifier of rpr and grim, ubiquitously expressed) | 1 | 146 | 220 | – | – |
| TM9SF2 (Transmembrane 9 superfamily protein member 2) | 1 | 90.6 | 75.7 | – | – |
| CG4271 | 1 | 156 | 145 | – | – |
| NimC2 (Nimrod C2) | 1 | 130 | 114 | – | – |
| Lim3 | 1 | 202 | 116 | – | – |
| Lim3 | 2 | 154 | 90.7 | – | – |
| Lim3 | 3 | 133 | 238 | – | – |
| Lim3 | 4 | 70.9 | 138 | – | – |
| Lim3 | 5 | 96.5 | 141 | – | – |
| CG3407 | 1 | 107 | 167 | – | – |
| Syn (Synapsin) | 1 | 138 | 116 | – | – |
| CG11889 + CG11891 | 1 | 217 | 136 | – | – |
| CG11889 + CG11891 | 2 | 228 | 146 | – | – |
| CG7179 | 1 | 70.8 (active) | 90 | – | – |
| CG3251 | 1 | 131 | 94.5 | – | – |
| Obp57c + Obp57b | 1 | 77.4 | 156 | – | – |
| Sar1 (Secretion-associated Ras-related 1) | 1 | 150 | 169 | – | – |
| Sar1 (Secretion-associated Ras-related 1) | 2 | 64.5 | 82.1 | – | – |
| Nek2 | 1 | 170 | 110 | 151 | 92.2 |
| Brf (Brf RNA polymerase III subunit) | 1 | 124 | 197 | – | – |
| Brf (Brf RNA polymerase III subunit) | 2 | 118 | 190 | – | – |
| CenG1A (Centaurin gamma 1A) | 1 | 114 | 95.9 | – | – |
| CenG1A (Centaurin gamma 1A) | 2 | 105 | 115 | – | – |
| CenG1A (Centaurin gamma 1A) | 3 | 80.5 (active) | 115 | – | – |
| Cda9 (Chitin deacetylase-like 9) | 1 | 138 | 130 | – | – |
| CG5853 | 1 | 180 | 115 | – | – |
| CG5853 | 2 | 69 (active) | 104 | – | – |
| atlas | 1 | 69.3 | 103 | – | – |
| CG15012 | 1 | 107 | 90.9 | – | – |
| Aduk (Another Drosophila Unc-51-like kinase) | 1 | 49.3 (active) | 78.3 | – | – |
| uncNacbeta | 1 | 108 | 132 | – | – |
| CG4793 | 1 | 114 | 143 | – | – |
| CG14971 | 1 | 95.3 | 103 | – | – |
| CG10104 | 1 | 64 (active) | 101 | – | – |
| Cyp28d2 (Cytochrome P450 28d2) | 1 | 158 | 76 | – | – |
| ATP8A (ATPase 8A) | 1 | 56.5 | 132 | – | – |
| ATP8A (ATPase 8A) | 2 | 136 | 120 | – | – |
| ATP8A (ATPase 8A) | 3 | 149 | 232 | – | – |
| Gyc32E (Guanylyl cyclase at 32E) | 1 | 241 | 121 | – | – |
| CG7573 | 1 | 81.1 | 122 | – | – |
| Dbp73D (Dead box protein 73D) | 1 | 118 | 100 | – | – |
| CG8172 | 1 | 127 | 140 | – | – |
| CG8172 | 2 | 73.2 | 214 | – | – |
